Test results from publication PMC5344980.
For at least one entry, the source does not settle the construct or the ends of the probe. For some of these results: A negative result means that nothing was seen under these conditions. For some of these results: The direction of at least one scale is not stated here.

The chains behind the UniProt entries cited, without tags or fusion partners.
UniProt Q15717, whole entry: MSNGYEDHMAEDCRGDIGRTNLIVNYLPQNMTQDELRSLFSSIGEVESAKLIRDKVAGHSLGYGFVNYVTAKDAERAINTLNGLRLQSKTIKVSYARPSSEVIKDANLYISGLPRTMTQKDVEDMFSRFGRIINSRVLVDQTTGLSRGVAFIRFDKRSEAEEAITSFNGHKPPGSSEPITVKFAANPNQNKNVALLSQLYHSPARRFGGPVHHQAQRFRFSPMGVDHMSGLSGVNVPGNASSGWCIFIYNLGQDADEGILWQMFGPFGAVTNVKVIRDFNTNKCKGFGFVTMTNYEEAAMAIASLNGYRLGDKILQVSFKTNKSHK

Experiments:
GST-HuR = GST-HuR (UniProt Q15717); assay: EMSA; conditions: 3 mM MgCl2, 40 mM KCl, 5% glycerol, 2 mM DTT, 2 ug tRNA, 40 min at room temperature, 6% native acrylamide gel, recombinant protein, residues 1-326, protein details: GST, label: 5' biotin
GST = assay: EMSA; conditions: 3 mM MgCl2, 40 mM KCl, 5% glycerol, 2 mM DTT, 2 ug tRNA, 40 min at room temperature; 6% native acrylamide gel; recombinant protein; label: 5' biotin

Sequence: AUUUAUUUAUUUAUUUAUUUAUUUA [AU-rich RNA oligo (tandem ARE)]
- binding result (GST-HuR; PARylated by PARP1, binding markedly enhanced, supershift by HuR and GST antibodies): binds
- binding result (GST): no binding

Sequence: CUAUGUAUUUAUUUAUUUAUUAAUU [Cxcl2-ARE2 RNA oligo]
- binding result (GST-HuR; PARylated by PARP1, binding enhanced): binds

Sequence: AGUUCACUUAUUUAUUUAUCUAUGU [Cxcl2-ARE1 RNA oligo]
- binding signal (% of Kd without PARP1) (GST-HuR; HuR PARylated by PARP1, absolute Kd only in figure): 40
